Experimental data: publication PMC8717993
No constants are given. Whether binding was seen depends on the method and setting. Binding seen in cells or lysates may run through a third protein. Some entries that bind do so weakly or less than the wild type.

Sequences of proteins named here, by UniProt entry; tags and fusion partners are left off.
UniProt P35259: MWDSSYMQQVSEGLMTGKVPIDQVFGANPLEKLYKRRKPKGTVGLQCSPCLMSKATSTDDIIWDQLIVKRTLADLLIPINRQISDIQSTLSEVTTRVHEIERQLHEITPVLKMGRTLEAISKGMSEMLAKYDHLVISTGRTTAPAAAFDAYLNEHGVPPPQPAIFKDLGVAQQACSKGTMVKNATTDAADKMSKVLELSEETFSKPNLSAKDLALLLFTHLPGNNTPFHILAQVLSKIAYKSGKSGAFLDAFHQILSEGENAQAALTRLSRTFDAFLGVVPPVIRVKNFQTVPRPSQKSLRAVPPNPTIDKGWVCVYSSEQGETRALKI
UniProt P31352: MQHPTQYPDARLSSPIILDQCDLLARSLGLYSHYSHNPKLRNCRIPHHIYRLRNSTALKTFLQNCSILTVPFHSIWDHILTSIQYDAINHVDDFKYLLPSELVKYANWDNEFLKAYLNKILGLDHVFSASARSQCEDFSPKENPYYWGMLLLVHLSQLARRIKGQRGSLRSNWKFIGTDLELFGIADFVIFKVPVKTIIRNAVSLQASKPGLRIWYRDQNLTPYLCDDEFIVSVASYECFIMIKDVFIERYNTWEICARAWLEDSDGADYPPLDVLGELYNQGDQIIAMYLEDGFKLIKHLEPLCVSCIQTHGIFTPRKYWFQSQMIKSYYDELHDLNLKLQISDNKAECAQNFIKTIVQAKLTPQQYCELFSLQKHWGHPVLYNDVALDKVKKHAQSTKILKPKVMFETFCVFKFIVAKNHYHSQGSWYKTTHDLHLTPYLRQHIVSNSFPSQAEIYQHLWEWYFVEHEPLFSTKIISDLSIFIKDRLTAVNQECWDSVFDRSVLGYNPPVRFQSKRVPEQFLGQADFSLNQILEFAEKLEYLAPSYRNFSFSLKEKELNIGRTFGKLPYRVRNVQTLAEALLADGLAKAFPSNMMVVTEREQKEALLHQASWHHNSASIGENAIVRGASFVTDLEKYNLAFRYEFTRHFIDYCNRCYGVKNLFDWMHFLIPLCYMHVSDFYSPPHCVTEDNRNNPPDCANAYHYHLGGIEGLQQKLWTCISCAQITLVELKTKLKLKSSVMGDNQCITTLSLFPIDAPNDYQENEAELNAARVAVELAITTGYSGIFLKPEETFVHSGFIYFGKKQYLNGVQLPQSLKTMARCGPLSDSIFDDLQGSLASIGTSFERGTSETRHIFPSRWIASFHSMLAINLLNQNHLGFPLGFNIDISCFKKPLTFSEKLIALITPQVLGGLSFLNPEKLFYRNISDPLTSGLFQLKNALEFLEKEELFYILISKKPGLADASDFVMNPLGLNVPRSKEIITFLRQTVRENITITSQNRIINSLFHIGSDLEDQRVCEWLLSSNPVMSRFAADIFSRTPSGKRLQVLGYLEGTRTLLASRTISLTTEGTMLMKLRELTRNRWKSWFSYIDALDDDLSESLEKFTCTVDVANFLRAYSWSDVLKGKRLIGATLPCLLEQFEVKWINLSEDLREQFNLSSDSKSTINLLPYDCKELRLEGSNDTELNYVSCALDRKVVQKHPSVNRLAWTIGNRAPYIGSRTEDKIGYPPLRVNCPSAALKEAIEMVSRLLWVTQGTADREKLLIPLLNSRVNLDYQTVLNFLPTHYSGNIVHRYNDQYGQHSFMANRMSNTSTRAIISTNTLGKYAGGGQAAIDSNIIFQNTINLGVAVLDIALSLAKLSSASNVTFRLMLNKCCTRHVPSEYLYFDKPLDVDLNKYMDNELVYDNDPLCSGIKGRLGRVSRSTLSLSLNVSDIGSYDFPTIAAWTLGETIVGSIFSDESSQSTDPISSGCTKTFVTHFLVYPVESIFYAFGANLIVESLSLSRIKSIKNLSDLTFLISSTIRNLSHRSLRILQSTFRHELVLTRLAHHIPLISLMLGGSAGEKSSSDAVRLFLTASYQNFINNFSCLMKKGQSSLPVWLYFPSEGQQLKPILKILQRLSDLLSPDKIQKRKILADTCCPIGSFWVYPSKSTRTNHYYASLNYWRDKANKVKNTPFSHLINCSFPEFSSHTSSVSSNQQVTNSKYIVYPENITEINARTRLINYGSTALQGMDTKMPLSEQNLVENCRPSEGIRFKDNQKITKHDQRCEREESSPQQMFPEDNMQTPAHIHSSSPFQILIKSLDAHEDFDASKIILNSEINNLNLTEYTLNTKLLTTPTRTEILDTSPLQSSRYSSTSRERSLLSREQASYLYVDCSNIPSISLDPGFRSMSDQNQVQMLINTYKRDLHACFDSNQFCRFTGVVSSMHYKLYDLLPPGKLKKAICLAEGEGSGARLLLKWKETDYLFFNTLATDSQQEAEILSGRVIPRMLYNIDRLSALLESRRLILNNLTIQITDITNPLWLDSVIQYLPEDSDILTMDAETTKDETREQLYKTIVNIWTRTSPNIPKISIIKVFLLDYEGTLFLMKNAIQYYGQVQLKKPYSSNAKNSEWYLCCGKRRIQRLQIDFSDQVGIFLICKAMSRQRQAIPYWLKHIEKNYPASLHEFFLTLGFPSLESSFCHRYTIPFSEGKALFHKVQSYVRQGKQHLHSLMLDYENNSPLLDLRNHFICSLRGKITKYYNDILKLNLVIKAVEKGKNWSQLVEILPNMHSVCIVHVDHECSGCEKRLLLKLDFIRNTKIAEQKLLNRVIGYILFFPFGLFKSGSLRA

Target: Marburg virus (MARV) VP35 (Lake Victoria marburgvirus strain Musoke) (UniProt P35259)
Test: pull-down

Q: For “Marburg virus (MARV) L protein, wild type (from UniProt P31352 1-2331) (enzyme)”, which binding is on record?
A: binds
